Record: PubChem BioAssay AID1224830 (NIAID, 2016)

Aim: 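Regulators of TLR4 signalling towards TNF-alpha in macrophage-like cells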 (primary screen)
Cell system: human THP-1 monocytic leukaemia cells, TNF dual-luciferase reporter clone, PMA-differentiated to macrophage-like cells
Reagent: siRNA pool against human genes, 50 nM
Timing: LPS for 4 h, given about 3 days after siRNA transfection
Conditions: bacterial LPS (TLR4 ligand), 10 ng/ml
Measurement: 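Ratio of firefly to renilla light, scaled to the plate median and expressed as a robust z-score per replicate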
Direction: TNF reporter robust z-score: higher = stronger TNF reporter response to LPS
Hit rule: 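a well is active when its z-score exceeds 2.8 or falls below -1.5; control wells carry no call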
Here is a random part of about 18,000 reagents. Over the whole deposit, about 2,900 (16%) got an active call. 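Calls are made per well; low scores hint the gene aids the LPS response, high scores that it dampens it.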 Repeated entries: four replicate wells of each siRNA pool.

After knock-down of SPATA45, the screen gave TNF reporter robust z-score -0.57; inactive.
SPATA45 scored TNF reporter robust z-score -0.71; inactive.
After knock-down of SPATA45, the record shows TNF reporter robust z-score -0.62; inactive.
HCAR3 gave TNF reporter robust z-score 1.3; inactive.
For HCAR3, the values are TNF reporter robust z-score 0.22; inactive.
After knock-down of HCAR3, the record shows TNF reporter robust z-score 2.54; inactive.
HCAR3 scored TNF reporter robust z-score 2.58; inactive.
Silencing of EGFLAM gave: TNF reporter robust z-score -1.19; inactive.
EGFLAM gave TNF reporter robust z-score -0.95; inactive.
Silencing of EGFLAM came out at: TNF reporter robust z-score -1.08; inactive.
EGFLAM gave TNF reporter robust z-score -0.94; inactive.
ZNF652 gave TNF reporter robust z-score 0.13; inactive.
Depletion of ZNF652 resulted in: TNF reporter robust z-score -0.7; inactive.
Silencing of ZNF652 gave: TNF reporter robust z-score -0.26; inactive.
ZNF652 showed TNF reporter robust z-score 1.07; inactive.
For SOCS4 the deposit lists TNF reporter robust z-score -0.81; inactive.
Knock-down of SOCS4 resulted in: TNF reporter robust z-score -2.1; active.
For SOCS4, the entry reads TNF reporter robust z-score 0.45; inactive.
With knock-down of SOCS4, the screen gave TNF reporter robust z-score 1.12; inactive.

Called active (from the list above):
SOCS4 → TNF reporter robust z-score = -2.1; activity call = active

Further records:
DCDC2 scored TNF reporter robust z-score -0.41; inactive.
DCDC2 gave TNF reporter robust z-score 0.67; inactive.
DCDC2 gave TNF reporter robust z-score 0.9; inactive.
After knock-down of DCDC2, the screen gave TNF reporter robust z-score 2.44; inactive.
ENOSF1 gave TNF reporter robust z-score 0.97; inactive.
With knock-down of ENOSF1, the record shows TNF reporter robust z-score 0.06; inactive.
ENOSF1 gave TNF reporter robust z-score 0.11; inactive.
ENOSF1 gave TNF reporter robust z-score -0.42; inactive.
Silencing of ATXN2 came out at: TNF reporter robust z-score 2.04; inactive.
ATXN2 showed TNF reporter robust z-score 2.16; inactive.
Against ATXN2 the deposit lists TNF reporter robust z-score 0.68; inactive.
For ATXN2 the deposit lists TNF reporter robust z-score 1.28; inactive.
After knock-down of APBA1 the results were TNF reporter robust z-score -1.12; inactive.
Against APBA1, the entry reads TNF reporter robust z-score -0.26; inactive.
Against APBA1, the entry reads TNF reporter robust z-score -1.17; inactive.
For APBA1 the deposit lists TNF reporter robust z-score -0.61; inactive.
TAX1BP1 gave TNF reporter robust z-score -0.33; inactive.
After knock-down of TAX1BP1 the results were TNF reporter robust z-score 0.51; inactive.
With knock-down of TAX1BP1, the screen gave TNF reporter robust z-score -1.08; inactive.
With knock-down of TAX1BP1, the record shows TNF reporter robust z-score -0.13; inactive.
ZC3H11A gave TNF reporter robust z-score 1.39; inactive.
Against ZC3H11A the deposit lists TNF reporter robust z-score 1.15; inactive.
With knock-down of ZC3H11A the results were TNF reporter robust z-score 0.92; inactive.
ZC3H11A showed TNF reporter robust z-score 2.19; inactive.
With knock-down of PCDHGA5, the record shows TNF reporter robust z-score 0.89; inactive.
Knock-down of PCDHGA5 resulted in: TNF reporter robust z-score 0.06; inactive.
With knock-down of PCDHGA5, the screen gave TNF reporter robust z-score -0.15; inactive.
Against PCDHGA5 the deposit lists TNF reporter robust z-score 0.67; inactive.
